Laboratory results as given in PubChem BioAssay AID493014 (National Center for Advancing Translational Sciences (NCATS), 2011).
About 170 (0.05%) of roughly 340,000 compounds were called active. Inconclusive results, whose numbers are uncertain, are shown with a selection of clear calls. Calls follow the shape of the dose curve; as a rule, active = well fitted inhibition curve with a large enough effect in the signal ratio, with a control signal flat (not every such curve was filed as active); inconclusive = small, poorly fitted or top-dose-only effect, or effect the other way, or a change in a side signal; inactive = flat fitted curve, though single readings scatter; the % refers to the signal ratio. Potencies of inconclusive entries are doubtful fits and often do not repeat.

Experiment: qHTS Assay to Find Inhibitors of Chronic Active B-Cell Receptor Signaling;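 as to activity change, negative = inhibition: plate controls were basal doxycycline-induced cells for no effect and cells given 10 µM MG132 for full effect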
Conditions: ABC-DLBCL IkBa-CBG/CBR reporter, luminescence ratio (green luciferase fused to IkBa over red control in TMD8 lymphoma cells), 4 h; activity change, negative = inhibition: at 46.1 µM (top of the series) unless noted
In short: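 Cell line TMD8 (human ABC DLBCL), stably expressing tet-inducible CBG68-IkBa fusion and CBR; IMDM/0.5% FBS; cpd up to 46 uM; dox induction, 4 h, 37C/5% CO2; dual luminescence; green/red ratio; MG132 control.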
Potency is read from the fitted curve at half-maximal effect.

Structure (SMILES) | activity change, negative = inhibition | Potency
COc1ccc(C)c2sc(N(Cc3cccnc3)C(C)=O)nc12 | inactive: -16.8% | 
C#CCCCCCCCCC(=O)NCCCC | inconclusive: -0.825% | 
CC(=O)c1c(CC(=O)O)[nH]n(-c2nc3ccccc3s2)c1=O |  | inconclusive: 23.1 µM [falling, partial curve]
O=C(CNC(=O)C1CCCCC1)Nc1ccc(F)c(Cl)c1 |  | inconclusive: 22.4 µM [falling, single point]
COC(=O)c1ccc(CSc2ccc3nnc(-c4cccnc4)n3n2)o1 | inactive: 2.21% | 
COc1ccccc1N(CC(=O)NC1CCCC1)C(=O)c1csnn1 |  | inconclusive: 29.1 µM [falling, single point]
CC(Cc1ccccc1)NC(=O)c1cc2ccccc2o1 (centres undefined) |  | inconclusive: 22.4 µM [falling, single point]
COc1cccc(/C=N\Nc2nncc(-c3ccccc3)n2)c1 |  | inconclusive: 20 µM [falling, single point]
Cc1csc(NC(=O)c2cc3c(s2)CCCCC3)n1 | inconclusive: -20.5% | 
CSc1nsc(SCC(=O)Nc2ccc(C(C)=O)cc2)n1 | inconclusive: 9.48% | 
CC(=O)Nc1ccc(OCc2cnc(Cl)s2)cc1 | inconclusive: 1.68% | 
COc1ccc(C(NC(=O)/C=C\c2ccco2)c2ccc(OC)c(OC)c2)cc1 (centres undefined) | inconclusive: -3.42% | 
COc1ccccc1OCCn1c(=S)[nH]c2ccccc21 |  | inconclusive: 14.1 µM [falling, partial curve, poor fit]
CCN(C(=O)c1cc2cc3ccc(C)cc3nc2o1)c1ccc(OC)cc1 | inconclusive: 3.86% | 
O=C(OCC(=O)N1CCc2ccccc2C1)c1ccc(O)cc1 |  | inconclusive: 4.61 µM [falling, single point]
CN(C)CCNC(=O)c1ccc(COCC(F)(F)F)cc1 | inconclusive: -1.29% | 
COc1cccc(-c2nn(C)c3sc(C(=O)NCc4ccccn4)cc23)c1 | inconclusive: 1.07% | 
O=C(Nc1cccc(NC(=O)c2ccccc2Cl)c1)c1ccc(F)cc1 | inconclusive: -12.5% | 
O=C1NC(=Nc2ccccc2Cl)SC1(CO)CO | inactive: 1.97% | 
CN(C)c1ccc(N=Cc2nc(-c3ccccc3)oc2OC(=O)c2ccccc2)cc1 |  | inconclusive: 13 µM [falling, partial curve]

A draw from above in order of molecular weight, smallest number first.
Structure (SMILES) | activity change, negative = inhibition | Potency
C#CCCCCCCCCC(=O)NCCCC | inconclusive: -0.825% | 
CSc1nsc(SCC(=O)Nc2ccc(C(C)=O)cc2)n1 | inconclusive: 9.48% | 
CCN(C(=O)c1cc2cc3ccc(C)cc3nc2o1)c1ccc(OC)cc1 | inconclusive: 3.86% | 

Further entries follow.

Structure (SMILES) | activity change, negative = inhibition | Potency
O=C(Cn1cnc([N+](=O)[O-])n1)N/N=C/c1cccc2ccccc12 | inactive: 3.11% | 
CCOC(=O)C1=C(COC(=O)CCOc2ccc(C)cc2)NC(=O)NC1C (centres undefined) | inconclusive: 20.5% | 
Cc1c(NC(=O)COc2c(F)c(F)c(F)c(F)c2F)c(=O)n(-c2ccccc2)n1C | inactive: 2.64% | 
CCCS(=O)(=O)c1nc(S(=O)(=O)c2ccc(C)cc2)c(NCc2ccccn2)s1 |  | inconclusive: 0.562 µM [falling, full curve, poor fit]
CCOc1ccc2nc(SCCNS(=O)(=O)c3ccccc3)sc2c1 | inactive: -0.715% | 
Oc1c(N=Nc2ccc(F)cc2)ccc2ccccc12 | inactive: -3.77% | 
COc1ccc(C(=O)COC(=O)C(CCCCN2C(=O)C3C4C=CC(C4)C3C2=O)N2C(=O)C3C4C=CC(C4)C3C2=O)cc1 (centres undefined) | inconclusive: 13.7% | 
CCN(CC)CCN(Cc1cc2cc3c(cc2[nH]c1=O)OCCO3)C(=S)NCCCOC |  | inconclusive: 11.2 µM [falling, partial curve, poor fit]
CCC1CSC(Nc2ccc(C(=O)/C=C/c3ccc(OC)c(OC)c3)cc2)=N1 (centres undefined) |  | inconclusive: 16.4 µM [falling, partial curve, poor fit]
CCOc1ccc(OCC)c(NC(=O)CSc2nc3cccnc3n2C)c1 | inactive: -0.96% | 
O=C(CSc1n[nH]c(=O)[nH]c1=O)N/N=C/c1ccccc1O | inconclusive: -2.04% | 
O=C(CSc1nc2ccccc2o1)Nc1nc2ccc(Br)cc2s1 |  | inconclusive: 29.1 µM [falling, single point]
CC(C)(C)c1ccc(S(=O)(=O)N(CCCN2CCOCC2)Cc2cccs2)cc1 | inactive: -1.06% | 
O=C1N=c2ccccc2=C1c1sc(NS(=O)(=O)c2ccccc2)nc1O | inconclusive: 0.603% | 
O=C(NNC(=S)Nc1cccc(C(F)(F)F)c1)c1ccccc1Cl | inactive: -2.65% | 
O=C1/C(=C/c2ccccc2)Nc2ccccc21 |  | inconclusive: 39.8 µM [falling, single point]
CCc1c(C)sc(NC(=O)c2cccs2)c1C#N | inconclusive: 2.57% | 
CN(NS(=O)(=O)c1ccc(Cl)cc1)c1nc(C(F)(F)F)nc2ccccc12 | inconclusive: 9.07% | 
CC1Cc2ccccc2N1C(=O)C1CCCN(S(=O)(=O)c2cccc3cccnc23)C1 (centres undefined) | inconclusive: -19.7% | 
